Two molecules from PubChem BioAssay AID493014 (National Center for Advancing Translational Sciences (NCATS), 2011) can be followed below.

Some of the results follow. These are further read-outs of the screen, such as a control signal, another cell line or another target. No call is given for them. Compounds called inactive in the main read-out are mostly missing here. The note in brackets gives the kind of curve behind each potency; many fits are weak.

The nature of the experiment: qHTS Assay to Find Inhibitors of Chronic Active B-Cell Receptor Signaling. Particulars: ABC-DLBCL IkBa-CBG/CBR reporter, luminescence ratio (green luciferase fused to IkBa over red control in TMD8 lymphoma cells), 4 h; measured here: CBR red luminescence, cell number. The method, boiled down: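 Cell line TMD8 (human ABC DLBCL), stably expressing tet-inducible CBG68-IkBa fusion and CBR; IMDM/0.5% FBS; cpd up to 46 uM; dox induction, 4 h, 37C/5% CO2; dual luminescence; green/red ratio; MG132 control.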
As for `O=C(Nc1ccc(C(=O)O)cc1)/C(=C\C=C\c1ccccc1)NC(=O)c1cccc(Br)c1`, the AC50 is 17.8 µM [falling, single point].
`CC(c1ccccc1)N1C(=O)c2ccc(C(=O)Nc3ccc(Br)cc3C(=O)O)cc2C1=O` (configuration not stated): the AC50 was 22.4 µM [falling, single point].
